Experimental data from the supplement of paper PMC10849652.
The other results are listed elsewhere or left out.

Sequences of proteins named here, by UniProt entry; tags and fusion partners are left off. A change or cut given only in a name is not applied to a line headed by its entry.
UniProt O00487, whole entry, looked up: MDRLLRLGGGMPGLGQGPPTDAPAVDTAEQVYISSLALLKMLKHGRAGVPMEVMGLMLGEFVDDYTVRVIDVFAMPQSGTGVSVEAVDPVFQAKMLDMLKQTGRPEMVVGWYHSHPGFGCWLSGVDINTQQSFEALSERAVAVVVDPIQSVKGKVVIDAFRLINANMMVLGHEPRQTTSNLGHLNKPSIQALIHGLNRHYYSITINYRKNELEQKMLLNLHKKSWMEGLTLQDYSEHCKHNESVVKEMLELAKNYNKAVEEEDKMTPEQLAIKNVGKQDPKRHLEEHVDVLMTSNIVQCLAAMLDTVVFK
UniProt P28074: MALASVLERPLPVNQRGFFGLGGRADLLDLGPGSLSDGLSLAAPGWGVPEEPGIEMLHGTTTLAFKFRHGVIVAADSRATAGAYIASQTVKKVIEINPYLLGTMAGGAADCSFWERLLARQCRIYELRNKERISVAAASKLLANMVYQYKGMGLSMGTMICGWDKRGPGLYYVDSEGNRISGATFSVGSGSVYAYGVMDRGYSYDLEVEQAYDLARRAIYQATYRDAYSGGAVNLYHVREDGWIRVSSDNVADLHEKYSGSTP
UniProt P48634: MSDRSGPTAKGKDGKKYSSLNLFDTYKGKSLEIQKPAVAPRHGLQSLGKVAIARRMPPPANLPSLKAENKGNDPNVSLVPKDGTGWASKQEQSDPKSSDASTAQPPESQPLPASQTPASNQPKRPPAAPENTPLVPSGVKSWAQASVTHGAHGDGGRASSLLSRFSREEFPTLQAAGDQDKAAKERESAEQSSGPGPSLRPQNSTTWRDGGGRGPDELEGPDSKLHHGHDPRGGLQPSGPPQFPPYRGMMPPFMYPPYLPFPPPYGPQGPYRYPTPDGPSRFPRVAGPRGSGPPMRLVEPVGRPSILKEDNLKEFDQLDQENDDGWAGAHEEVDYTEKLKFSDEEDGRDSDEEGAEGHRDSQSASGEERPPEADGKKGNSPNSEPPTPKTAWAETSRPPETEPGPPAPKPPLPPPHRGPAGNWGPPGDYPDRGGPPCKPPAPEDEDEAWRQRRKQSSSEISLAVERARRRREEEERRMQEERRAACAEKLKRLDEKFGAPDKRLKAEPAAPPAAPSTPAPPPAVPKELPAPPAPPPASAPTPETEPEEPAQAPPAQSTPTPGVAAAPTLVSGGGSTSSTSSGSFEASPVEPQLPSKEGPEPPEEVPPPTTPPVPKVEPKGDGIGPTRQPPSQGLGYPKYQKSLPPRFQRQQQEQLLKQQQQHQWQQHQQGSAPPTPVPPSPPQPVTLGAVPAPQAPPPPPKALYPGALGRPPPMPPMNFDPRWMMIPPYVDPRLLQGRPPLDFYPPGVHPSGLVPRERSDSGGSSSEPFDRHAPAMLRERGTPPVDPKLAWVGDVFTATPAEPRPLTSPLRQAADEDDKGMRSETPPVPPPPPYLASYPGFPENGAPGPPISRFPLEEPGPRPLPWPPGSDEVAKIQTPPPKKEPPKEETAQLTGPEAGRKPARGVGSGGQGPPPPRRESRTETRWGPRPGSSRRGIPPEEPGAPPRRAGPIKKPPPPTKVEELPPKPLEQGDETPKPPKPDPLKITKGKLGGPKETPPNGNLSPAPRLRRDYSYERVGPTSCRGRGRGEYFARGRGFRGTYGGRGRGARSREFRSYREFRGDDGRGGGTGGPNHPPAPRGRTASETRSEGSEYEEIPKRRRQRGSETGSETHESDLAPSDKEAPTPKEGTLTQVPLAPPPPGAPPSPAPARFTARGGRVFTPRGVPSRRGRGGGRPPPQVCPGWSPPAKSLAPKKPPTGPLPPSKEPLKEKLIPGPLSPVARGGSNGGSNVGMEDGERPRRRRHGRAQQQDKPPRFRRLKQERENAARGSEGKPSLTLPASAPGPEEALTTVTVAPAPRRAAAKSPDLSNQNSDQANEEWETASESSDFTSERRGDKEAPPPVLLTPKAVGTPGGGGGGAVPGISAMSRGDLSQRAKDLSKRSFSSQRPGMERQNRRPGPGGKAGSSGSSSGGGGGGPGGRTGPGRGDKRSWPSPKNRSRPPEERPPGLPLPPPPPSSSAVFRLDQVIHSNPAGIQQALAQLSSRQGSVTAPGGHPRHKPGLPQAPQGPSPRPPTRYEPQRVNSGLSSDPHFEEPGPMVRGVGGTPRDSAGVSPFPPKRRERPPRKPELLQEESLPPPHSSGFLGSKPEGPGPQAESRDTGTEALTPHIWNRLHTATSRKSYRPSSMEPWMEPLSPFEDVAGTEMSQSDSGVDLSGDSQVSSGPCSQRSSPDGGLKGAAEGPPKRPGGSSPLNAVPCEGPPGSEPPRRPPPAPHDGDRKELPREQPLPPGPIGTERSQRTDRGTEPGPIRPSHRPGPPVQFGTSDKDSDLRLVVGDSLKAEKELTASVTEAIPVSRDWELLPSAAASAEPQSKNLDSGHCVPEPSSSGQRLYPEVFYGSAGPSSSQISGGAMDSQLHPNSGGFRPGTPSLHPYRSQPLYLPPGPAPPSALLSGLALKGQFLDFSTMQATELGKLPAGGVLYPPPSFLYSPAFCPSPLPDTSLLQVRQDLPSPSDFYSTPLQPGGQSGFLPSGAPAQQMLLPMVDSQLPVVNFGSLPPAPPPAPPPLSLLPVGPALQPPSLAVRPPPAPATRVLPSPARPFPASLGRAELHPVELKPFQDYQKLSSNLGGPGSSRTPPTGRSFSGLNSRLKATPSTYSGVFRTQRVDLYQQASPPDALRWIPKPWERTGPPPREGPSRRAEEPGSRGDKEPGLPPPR
UniProt Q03393: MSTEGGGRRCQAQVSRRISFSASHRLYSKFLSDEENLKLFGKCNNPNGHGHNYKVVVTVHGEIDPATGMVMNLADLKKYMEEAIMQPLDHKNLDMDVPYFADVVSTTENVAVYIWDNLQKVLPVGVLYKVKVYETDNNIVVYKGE
UniProt Q9Y6M0: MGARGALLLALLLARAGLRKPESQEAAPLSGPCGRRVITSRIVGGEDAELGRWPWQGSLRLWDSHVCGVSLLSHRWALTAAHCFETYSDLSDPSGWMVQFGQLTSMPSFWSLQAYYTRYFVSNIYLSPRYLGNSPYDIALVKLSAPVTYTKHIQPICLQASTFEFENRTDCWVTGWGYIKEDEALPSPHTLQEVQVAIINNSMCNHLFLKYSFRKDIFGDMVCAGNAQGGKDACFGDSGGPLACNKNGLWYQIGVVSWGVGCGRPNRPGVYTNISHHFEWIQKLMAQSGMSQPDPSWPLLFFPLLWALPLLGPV
UniProt Q05397, whole entry, looked up: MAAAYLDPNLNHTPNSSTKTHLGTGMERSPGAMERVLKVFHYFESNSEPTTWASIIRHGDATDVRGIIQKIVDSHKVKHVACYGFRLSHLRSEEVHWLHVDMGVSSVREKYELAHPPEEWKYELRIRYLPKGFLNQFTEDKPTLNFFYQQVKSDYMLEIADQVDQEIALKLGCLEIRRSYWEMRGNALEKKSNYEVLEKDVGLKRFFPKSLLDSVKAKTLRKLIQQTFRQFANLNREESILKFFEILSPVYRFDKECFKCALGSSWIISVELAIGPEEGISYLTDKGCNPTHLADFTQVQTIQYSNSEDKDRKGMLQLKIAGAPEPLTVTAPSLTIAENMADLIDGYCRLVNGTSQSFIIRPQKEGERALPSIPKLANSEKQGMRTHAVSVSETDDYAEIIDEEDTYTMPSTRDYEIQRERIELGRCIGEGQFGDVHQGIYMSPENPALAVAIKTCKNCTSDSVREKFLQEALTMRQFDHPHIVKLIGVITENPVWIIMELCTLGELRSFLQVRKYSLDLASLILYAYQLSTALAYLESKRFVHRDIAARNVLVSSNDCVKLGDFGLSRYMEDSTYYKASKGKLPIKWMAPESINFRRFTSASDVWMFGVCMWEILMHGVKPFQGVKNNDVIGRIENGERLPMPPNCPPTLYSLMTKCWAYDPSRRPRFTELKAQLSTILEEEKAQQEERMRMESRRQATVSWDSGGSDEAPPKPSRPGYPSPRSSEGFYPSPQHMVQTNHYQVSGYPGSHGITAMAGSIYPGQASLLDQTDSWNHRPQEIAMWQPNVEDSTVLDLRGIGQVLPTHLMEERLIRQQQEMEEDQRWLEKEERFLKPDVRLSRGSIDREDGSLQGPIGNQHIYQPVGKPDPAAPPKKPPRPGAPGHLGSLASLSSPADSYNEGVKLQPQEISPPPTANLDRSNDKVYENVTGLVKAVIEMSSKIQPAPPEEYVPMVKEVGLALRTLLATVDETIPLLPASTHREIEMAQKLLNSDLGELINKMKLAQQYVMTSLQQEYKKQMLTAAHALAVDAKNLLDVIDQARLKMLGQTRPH
UniProt P60900, whole entry, looked up: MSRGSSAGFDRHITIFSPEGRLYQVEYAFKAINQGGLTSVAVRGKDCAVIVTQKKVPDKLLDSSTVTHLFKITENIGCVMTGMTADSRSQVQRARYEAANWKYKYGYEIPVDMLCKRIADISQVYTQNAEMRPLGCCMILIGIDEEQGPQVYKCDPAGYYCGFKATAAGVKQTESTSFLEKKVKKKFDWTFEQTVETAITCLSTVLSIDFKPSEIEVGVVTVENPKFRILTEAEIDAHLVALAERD
UniProt O75365, whole entry, looked up: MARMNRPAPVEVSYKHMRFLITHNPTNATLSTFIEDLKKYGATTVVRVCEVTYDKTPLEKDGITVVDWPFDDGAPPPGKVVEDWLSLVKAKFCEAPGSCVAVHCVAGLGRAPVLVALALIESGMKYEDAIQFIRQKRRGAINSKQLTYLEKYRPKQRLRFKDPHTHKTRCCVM
UniProt P25787: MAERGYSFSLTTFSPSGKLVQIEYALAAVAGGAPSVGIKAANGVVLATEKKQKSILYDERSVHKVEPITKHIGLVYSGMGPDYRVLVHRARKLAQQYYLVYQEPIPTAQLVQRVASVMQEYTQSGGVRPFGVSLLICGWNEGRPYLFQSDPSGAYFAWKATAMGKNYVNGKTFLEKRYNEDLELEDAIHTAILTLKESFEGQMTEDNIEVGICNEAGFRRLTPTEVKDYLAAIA
UniProt P06454: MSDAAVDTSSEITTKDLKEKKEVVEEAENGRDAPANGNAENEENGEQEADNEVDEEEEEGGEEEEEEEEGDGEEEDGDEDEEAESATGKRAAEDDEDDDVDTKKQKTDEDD
UniProt P43378: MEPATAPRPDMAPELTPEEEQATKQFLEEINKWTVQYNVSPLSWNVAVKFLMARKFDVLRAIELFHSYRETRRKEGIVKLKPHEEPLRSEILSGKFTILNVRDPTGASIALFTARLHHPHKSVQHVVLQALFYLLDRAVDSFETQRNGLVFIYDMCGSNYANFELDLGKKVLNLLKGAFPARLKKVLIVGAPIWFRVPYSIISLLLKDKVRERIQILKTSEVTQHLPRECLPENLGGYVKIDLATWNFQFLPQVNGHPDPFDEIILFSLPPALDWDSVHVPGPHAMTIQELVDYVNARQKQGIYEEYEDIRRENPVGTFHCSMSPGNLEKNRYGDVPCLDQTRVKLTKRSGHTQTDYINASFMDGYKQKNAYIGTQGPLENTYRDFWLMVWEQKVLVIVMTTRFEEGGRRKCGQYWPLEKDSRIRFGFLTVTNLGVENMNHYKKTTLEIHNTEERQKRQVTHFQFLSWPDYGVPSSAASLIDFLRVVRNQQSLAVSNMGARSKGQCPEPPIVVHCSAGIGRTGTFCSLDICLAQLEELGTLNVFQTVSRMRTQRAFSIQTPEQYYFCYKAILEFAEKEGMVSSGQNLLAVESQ
UniProt P18031: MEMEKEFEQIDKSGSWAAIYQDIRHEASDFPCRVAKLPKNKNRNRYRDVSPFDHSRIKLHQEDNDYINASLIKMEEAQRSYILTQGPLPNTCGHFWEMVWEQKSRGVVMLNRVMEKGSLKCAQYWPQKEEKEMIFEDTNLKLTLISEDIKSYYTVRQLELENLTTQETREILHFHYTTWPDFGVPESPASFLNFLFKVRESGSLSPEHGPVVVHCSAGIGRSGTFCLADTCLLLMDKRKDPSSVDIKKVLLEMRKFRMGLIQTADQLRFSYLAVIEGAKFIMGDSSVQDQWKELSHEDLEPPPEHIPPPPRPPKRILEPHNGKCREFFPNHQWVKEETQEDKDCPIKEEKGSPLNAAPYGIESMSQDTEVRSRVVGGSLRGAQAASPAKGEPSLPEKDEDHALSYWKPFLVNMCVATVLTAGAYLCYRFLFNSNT
UniProt Q16378: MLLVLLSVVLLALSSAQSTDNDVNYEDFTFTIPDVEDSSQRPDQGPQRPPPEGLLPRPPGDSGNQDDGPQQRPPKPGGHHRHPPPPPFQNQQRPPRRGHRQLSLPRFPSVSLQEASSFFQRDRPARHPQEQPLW
UniProt P60484: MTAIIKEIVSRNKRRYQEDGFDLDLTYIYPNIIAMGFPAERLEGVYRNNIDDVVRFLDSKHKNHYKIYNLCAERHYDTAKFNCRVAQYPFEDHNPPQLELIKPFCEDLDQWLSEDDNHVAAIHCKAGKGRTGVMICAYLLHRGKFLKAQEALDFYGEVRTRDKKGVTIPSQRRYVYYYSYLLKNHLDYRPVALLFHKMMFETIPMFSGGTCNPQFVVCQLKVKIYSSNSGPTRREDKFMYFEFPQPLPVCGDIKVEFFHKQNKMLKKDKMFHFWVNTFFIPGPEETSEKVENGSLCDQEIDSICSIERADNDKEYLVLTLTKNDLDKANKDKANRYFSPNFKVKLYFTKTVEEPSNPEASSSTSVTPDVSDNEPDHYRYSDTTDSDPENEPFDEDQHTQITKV

Legend:
Experiment in all cases: log2 fold change, soluble protein after heating vs DMSO (PISA); higher = thermal stabilisation; K562 lysate, 10 uM; active = over 0.2 and 3.5 SD of the protein, either way, in both replicates (recomputed)
[1] = compound: NCC(=O)Nc1ccc(-n2nc(C(F)(F)F)cc2-c2ccc3c(ccc4ccccc43)c2)cc1
Procedure, shortened: (§1)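 The values are log-two fold changes in thermal stability compared with solvent controls and come from duplicates. They were obtained by TMTpro 16plex LC-MS/MS, with channel sums equalised, on the supernatant after 21,000xg for 90 min. That supernatant came from crude K562 extract at 1 mg/mL protein treated with 10 μM compound for 30 min, heated for 3 min across 48°C-58°C, pooled and brought to 0.5% NP-40 at 4°C.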

[2] = compound: O=C(CCCCCCC(=O)Nc1ccccc1)NO [vorinostat]
Procedure, shortened: as §1

[3] = compound: O=C(O)c1ccc2c(c1)nc(Nc1cccc(Cl)c1)c1ccncc12 [silmitasertib]
Procedure, shortened: as §1

[4] = compound: O=C1NC(=O)C(c2cnc3ccccn23)=C1c1cn2c3c(cc(F)cc13)CN(C(=O)N1CCCCC1)CC2
Procedure, shortened: as §1

[5] = compound: c1cn2cc(-c3ccc4cn[nH]c4c3)nc(Nc3ccc(N4CCOCC4)cc3)c2n1 [entospletinib]
Procedure, shortened: as §1

Measured: log2 fold change

PSMC6 (UniProt P62333)
inactive: [1] 0.013 | [2] -0.192 | [3] 0.005 | [4] 0.006 | [5] 0

PSRC1 (UniProt Q6PGN9)
inactive: [1] 0.029 | [2] -0.087 | [3] -0.002 | [4] 0 | [5] -0.007

PSMD14 (UniProt O00487)
inactive: [1] 0 | [2] -0.03 | [3] -0.012 | [4] -0.018 | [5] 0.007

PSMD8 (UniProt P48556)
inactive: [1] -0.025 | [2] -0.028 | [3] 0.052 | [4] -0.01 | [5] -0.021

PUM3 (UniProt Q15397)
inactive: [1] 0 | [2] -0.014 | [3] -0.013 | [4] -0.005 | [5] -0.007

PTGES3 (UniProt Q15185)
inactive: [1] -0.013 | [2] -0.06 | [3] 0.012 | [4] 0.02 | [5] 0.04

PTPRS isoform 3 (UniProt Q13332)
inactive: [1] -0.002 | [2] 0.149 | [3] -0.008 | [4] 0.005 | [5] -0.027

PTPN12 (UniProt Q05209)
inactive: [1] -0.001 | [2] -0.06 | [3] -0.004 | [4] -0.002 | [5] 0.02

PRTFDC1 (UniProt Q9NRG1)
inactive: [1] -0.011 | [2] 0.114 | [3] -0.005 | [4] -0.038 | [5] 0.026

PSMB5 (UniProt P28074)
inactive: [1] -0.009 | [2] 0.14 | [3] -0.031 | [4] 0.008 | [5] 0.028

PSMB7 (UniProt Q99436)
inactive: [1] -0.002 | [2] 0.108 | [3] -0.027 | [4] 0.012 | [5] 0.02

PTPN18 (UniProt Q99952)
inactive: [1] 0.038 | [2] -0.068 | [3] 0.086 | [4] -0.045 | [5] -0.009

PRRC2A (UniProt P48634)
inactive: [1] 0.012 | [2] 0.108 | [3] -0.026 | [4] -0.018 | [5] -0.003

PURA (UniProt Q00577)
inactive: [1] -0.064 | [2] 0.141 | [3] 0.006 | [4] -0.028 | [5] -0.013

PTS (UniProt Q03393)
inactive: [1] 0.053 | [2] 0.006 | [3] 0.009 | [4] -0.151 | [5] 0.032

PSMB3 (UniProt P49720)
inactive: [1] -0.014 | [2] 0.126 | [3] -0.025 | [4] -0.021 | [5] 0.03

PRSS21 (UniProt Q9Y6M0)
inactive: [1] -0.021 | [2] 0.027 | [3] 0.038 | [4] -0.003 | [5] 0.019

PTK2 (UniProt Q05397)
inactive: [1] -0.017 | [2] -0.137 | [3] 0 | [4] -0.056 | [5] 0.175

PTTG1IP (UniProt P53801)
inactive: [1] 0.073 | [2] -0.014 | [3] 0.015 | [4] -0.031 | [5] -0.203

PSMA6 (UniProt P60900)
inactive: [1] 0.001 | [2] 0.127 | [3] -0.013 | [4] 0.01 | [5] 0.024

Reprinted at random: three entries already listed.
PSMD14 (UniProt O00487)
inactive: [1] 0 | [2] -0.03 | [3] -0.012 | [4] -0.018 | [5] 0.007

PSMA6 (UniProt P60900)
inactive: [1] 0.001 | [2] 0.127 | [3] -0.013 | [4] 0.01 | [5] 0.024

PTK2 (UniProt Q05397)
inactive: [1] -0.017 | [2] -0.137 | [3] 0 | [4] -0.056 | [5] 0.175

(continued)

PTP4A3 (UniProt O75365)
inactive: [1] -0.355 | [2] -0.324 | [3] 0.17 | [4] 0.375 | [5] -0.029

PTRH1 (UniProt Q86Y79)
inactive: [1] 0.148 | [2] -0.342 | [3] 0.112 | [4] -0.09 | [5] -0.048

PSME1 (UniProt Q06323)
inactive: [1] -0.019 | [2] -0.007 | [3] 0.011 | [4] -0.017 | [5] 0.006

PSMA2 (UniProt P25787)
inactive: [1] 0.009 | [2] 0.147 | [3] -0.018 | [4] 0.024 | [5] 0.028

PTMA (UniProt P06454)
inactive: [1] -0.002 | [2] 0.093 | [3] -0.036 | [4] 0.023 | [5] -0.025

PSMC5 (UniProt P62195)
inactive: [1] -0.001 | [2] -0.001 | [3] 0.034 | [4] 0.021 | [5] 0.003

PSMD10 (UniProt O75832)
inactive: [1] -0.035 | [2] 0.03 | [3] -0.032 | [4] 0.032 | [5] 0.003

PRPF8 (UniProt Q6P2Q9)
inactive: [1] -0.013 | [2] -0.032 | [3] 0.044 | [4] 0.013 | [5] -0.004

PRPSAP2 (UniProt O60256)
inactive: [1] 0.009 | [2] -0.067 | [3] 0.017 | [4] -0.002 | [5] 0.011

PSMC4 (UniProt P43686)
inactive: [1] 0.006 | [2] -0.017 | [3] -0.004 | [4] 0.007 | [5] 0.02

PSMD12 (UniProt O00232)
inactive: [1] 0.007 | [2] -0.014 | [3] -0.012 | [4] -0.025 | [5] 0.006

PSMG1 (UniProt O95456)
inactive: [1] -0.003 | [2] 0.049 | [3] 0.038 | [4] -0.004 | [5] -0.011

PTPN6 isoform 4 (UniProt P29350)
inactive: [1] -0.001 | [2] -0.039 | [3] 0.078 | [4] 0.006 | [5] 0.107

PSMG2 (UniProt Q969U7)
inactive: [1] 0.014 | [2] 0.105 | [3] 0.018 | [4] -0.015 | [5] 0.018

PTPN9 (UniProt P43378)
inactive: [1] 0.082 | [2] -0.177 | [3] -0.092 | [4] -0.08 | [5] -0.26

PSMC3IP (UniProt Q9P2W1)
inactive: [1] 0.004 | [2] -0.042 | [3] -0.012 | [4] -0.012 | [5] -0.009

PUS7L (UniProt Q9H0K6)
inactive: [1] 0.054 | [2] -0.087 | [3] -0.009 | [4] -0.017 | [5] -0.016

PSMD2 (UniProt Q13200)
inactive: [1] 0.021 | [2] -0.004 | [3] 0.008 | [4] -0.004 | [5] 0.001

PSMF1 (UniProt Q92530)
inactive: [1] 0.032 | [2] 0.067 | [3] -0.043 | [4] -0.052 | [5] -0.018

PTPN1 (UniProt P18031)
inactive: [1] -0.005 | [3] 0.04 | [4] 0.012 | [5] 0.048
active: [2] -0.29

PTPN2 (UniProt P17706)
active: [2] -0.298
inactive: [1] -0.005 | [3] 0.024 | [4] -0.002 | [5] 0.07

PRR4 (UniProt Q16378)
inactive: [1] 0.009 | [2] 0.229 | [3] -0.176 | [5] 0.302

PWP2 (UniProt Q15269)
active: [2] -0.547
inactive: [1] 0.007 | [3] 0.029 | [4] -0.014 | [5] 0.019

PSMB8 (UniProt P28062)
inactive: [2] 0.067 | [3] -0.043 | [4] 0.13 | [5] 0.035

PSEN2 (UniProt P49810)
inactive: [4] -0.049 | [5] -0.052

PRSS8 (UniProt Q16651)
inactive: [2] 0.018 | [3] -0.043 | [4] 0.084

PSMB10 (UniProt P40306)
inactive: [1] 0.015 | [4] 0.012 | [5] 0.059

PUDP isoform 4 (UniProt Q08623)
inactive: [1] -0.003 | [2] 0.148 | [3] -0.037 | [4] 0.013 | [5] -0.029

PSD4 (UniProt Q8NDX1)
inactive: [1] 0.046 | [2] -0.164 | [3] 0.039 | [4] 0.052 | [5] -0.017

PTBP1 (UniProt P26599)
inactive: [1] 0.029 | [2] -0.167 | [3] -0.005 | [4] 0.006 | [5] 0.026

PTPRF (UniProt P10586)
inactive: [1] -0.356 | [4] -0.052

PTK2 isoform 2 (UniProt Q05397)
inactive: [2] -0.056 | [3] 0.046 | [5] 0.007

PSMD6 (UniProt Q15008)
inactive: [4] -0.052

PTGER3 isoform 2 (UniProt P43115)
inactive: [4] -0.03

PTEN isoform 2 (UniProt P60484)
inactive: [2] -0.106 | [3] 0.027 | [4] 0.008 | [5] -0.085

PTOV1 (UniProt Q86YD1)
inactive: [1] 0.038 | [4] -0.139

PRRC2B (UniProt H0Y412)
inactive: [2] -0.045 | [3] -0.083
